# Experimental data from the supplement of paper PMC8728848.
# The list shows a part of the results.
# What was measured:
# Assay in all cases: glycan array binding signal (z-score within array); higher = stronger binding
# Conditions in all cases: glycan notation: IUPAC condensed, linker removed
# Gal3S(b1-4)Glc = test system: Gal3S(b1-4)Glc
# Procedure, shortened: (§1)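 Negative Z-scores can be read as non-binding. The Z-score is calculated within each array and then averaged across arrays of one protein sequence at different concentrations or buffers and across linkers. Arrays, 3228 in all, were curated from the Consortium for Functional Glycomics database and kept only where the protein sequence was available.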
# [1] = test system: Gal3S(b1-4)[Fuc(a1-3)]Glc6S
# Procedure, shortened: as §1
# [2] = test system: Gal3S(b1-4)[Fuc(a1-3)]Glc
# Procedure, shortened: as §1
# Gal3S4S(b1-4)GlcNAc = test system: Gal3S4S(b1-4)GlcNAc
# Procedure, shortened: as §1
# Gal3S6S(b1-4)GlcNAc6S = test system: Gal3S6S(b1-4)GlcNAc6S
# Procedure, shortened: as §1
# Gal3S6S(b1-4)GlcNAc = test system: Gal3S6S(b1-4)GlcNAc
# Procedure, shortened: as §1
# Gal4S(b1-4)GlcNAc = test system: Gal4S(b1-4)GlcNAc
# Procedure, shortened: as §1
# Gal4S6S(b1-4)GlcNAc = test system: Gal4S6S(b1-4)GlcNAc
# Procedure, shortened: as §1
# Gal6P(b1-4)GlcNAc = test system: Gal6P(b1-4)GlcNAc
# Procedure, shortened: as §1
# Gal6S(b1-3)GlcNAc6S = test system: Gal6S(b1-3)GlcNAc6S
# Procedure, shortened: as §1
# Gal6S(b1-3)GlcNAc = test system: Gal6S(b1-3)GlcNAc
# Procedure, shortened: as §1
# Gal6S(b1-4)Glc6S = test system: Gal6S(b1-4)Glc6S
# Procedure, shortened: as §1
# Gal6S(b1-4)GlcNAc6S = test system: Gal6S(b1-4)GlcNAc6S
# Procedure, shortened: as §1
# Gal6S(b1-4)GlcNAc = test system: Gal6S(b1-4)GlcNAc
# Procedure, shortened: as §1
# Gal6S(b1-4)Glc = test system: Gal6S(b1-4)Glc
# Procedure, shortened: as §1
# [3] = test system: GalNAc(a1-3)GalNAc(b1-3)Gal(a1-4)Gal(b1-4)GlcNAc
# Procedure, shortened: as §1
# [4] = test system: GalNAc(a1-3)GalNAc(b1-3)Gal(a1-4)Gal(b1-4)Glc
# Procedure, shortened: as §1
# GalNAc(a1-3)GalNAc = test system: GalNAc(a1-3)GalNAc
# Procedure, shortened: as §1
# GalNAc(a1-3)Gal = test system: GalNAc(a1-3)Gal
# Procedure, shortened: as §1
# [5] = test system: GalNAc(b1-3)Gal(a1-4)Gal(b1-4)GlcNAc(b1-3)Gal(b1-4)Glc
# Procedure, shortened: as §1
# [6] = test system: GalNAc(b1-3)Gal(a1-4)Gal(b1-4)GlcNAc
# Procedure, shortened: as §1
# [7] = test system: GalNAc(b1-3)Gal(a1-6)Gal(b1-4)Glc
# Procedure, shortened: as §1
# GalNAc(b1-3)GalNAc = test system: GalNAc(b1-3)GalNAc
# Procedure, shortened: as §1
# GalNAc(b1-3)Gal = test system: GalNAc(b1-3)Gal
# Procedure, shortened: as §1
# GalNAc(b1-4)Gal(b1-4)Glc = test system: GalNAc(b1-4)Gal(b1-4)Glc
# Procedure, shortened: as §1
# [8] = test system: GalNAc(b1-4)GlcNAc(b1-2)Man(a1-3)[GalNAc(b1-4)GlcNAc(b1-2)Man(a1-6)]Man(b1-4)GlcNAc(b1-4)GlcNAc
# Procedure, shortened: as §1
# GalNAc(b1-4)GlcNAc6S = test system: GalNAc(b1-4)GlcNAc6S
# Procedure, shortened: as §1
# GalNAc(b1-4)GlcNAc = test system: GalNAc(b1-4)GlcNAc
# Procedure, shortened: as §1
# GalNAc(b1-6)GalNAc = test system: GalNAc(b1-6)GalNAc
# Procedure, shortened: as §1
# GalNAc3S(b1-4)GlcNAc3S = test system: GalNAc3S(b1-4)GlcNAc3S
# Procedure, shortened: as §1
# GalNAc3S(b1-4)GlcNAc = test system: GalNAc3S(b1-4)GlcNAc
# Procedure, shortened: as §1
# GalNAc4S6S(b1-4)GlcNAc = test system: GalNAc4S6S(b1-4)GlcNAc
# Procedure, shortened: as §1
# GalNAc6S(b1-4)GlcNAc = test system: GalNAc6S(b1-4)GlcNAc
# Procedure, shortened: as §1
# [9] = test system: Glc(a1-4)Glc(a1-4)Glc(a1-4)Glc
# Procedure, shortened: as §1
# Glc(a1-4)Glc = test system: Glc(a1-4)Glc
# Procedure, shortened: as §1
# [10] = test system: Glc(a1-6)Glc(a1-6)Glc(a1-6)Glc
# Procedure, shortened: as §1
# Glc(a1-6)Glc(a1-6)Glc = test system: Glc(a1-6)Glc(a1-6)Glc
# Procedure, shortened: as §1
# Glc(b1-4)Glc = test system: Glc(b1-4)Glc
# Procedure, shortened: as §1
# Glc(b1-6)Glc = test system: Glc(b1-6)Glc
# Procedure, shortened: as §1
# GlcA(b1-3)Gal = test system: GlcA(b1-3)Gal
# Procedure, shortened: as §1
# GlcA(b1-3)GlcNAc = test system: GlcA(b1-3)GlcNAc
# Procedure, shortened: as §1
# GlcA(b1-6)Gal = test system: GlcA(b1-6)Gal
# Procedure, shortened: as §1
# [11] = test system: GlcNAc(a1-3)Gal(b1-4)GlcNAc
# Procedure, shortened: as §1
# [12] = test system: GlcNAc(a1-4)Gal(b1-3)GlcNAc
# Procedure, shortened: as §1
# [13] = test system: GlcNAc(a1-4)Gal(b1-4)GalNAc
# Procedure, shortened: as §1
# [14] = test system: GlcNAc(a1-4)Gal(b1-4)GlcNAc(b1-3)Gal(b1-4)GlcNAc(b1-3)Gal(b1-4)GlcNAc
# Procedure, shortened: as §1
# [15] = test system: GlcNAc(a1-4)Gal(b1-4)GlcNAc(b1-3)Gal(b1-4)GlcNAc
# Procedure, shortened: as §1
# [16] = test system: GlcNAc(a1-4)Gal(b1-4)GlcNAc(b1-3)Gal(b1-4)Glc
# Procedure, shortened: as §1
# [17] = test system: GlcNAc(a1-4)Gal(b1-4)GlcNAc(b1-3)Gal(b1-4)[Fuc(a1-3)]GlcNAc(b1-3)Gal(b1-4)[Fuc(a1-3)]GlcNAc
# Procedure, shortened: as §1
# [18] = test system: GlcNAc(a1-4)Gal(b1-4)GlcNAc
# Procedure, shortened: as §1
# [19] = test system: GlcNAc(a1-6)Gal(b1-4)GlcNAc
# Procedure, shortened: as §1
# [20] = test system: GlcNAc(b1-2)Gal(b1-3)GalNAc
# Procedure, shortened: as §1
substance,measurement,setting,value
"Wza (Escherichia coli), P0A930",glycan array binding signal (z-score),Gal3S(b1-4)Glc,1.76
same,glycan array binding signal (z-score),[1],0.421
same,glycan array binding signal (z-score),[2],0.16
same,glycan array binding signal (z-score),Gal3S4S(b1-4)GlcNAc,0.644
same,glycan array binding signal (z-score),Gal3S6S(b1-4)GlcNAc6S,0.78
same,glycan array binding signal (z-score),Gal3S6S(b1-4)GlcNAc,-0.768
same,glycan array binding signal (z-score),Gal4S(b1-4)GlcNAc,-0.184
same,glycan array binding signal (z-score),Gal4S6S(b1-4)GlcNAc,0.304
same,glycan array binding signal (z-score),Gal6P(b1-4)GlcNAc,-1.21
same,glycan array binding signal (z-score),Gal6S(b1-3)GlcNAc6S,0.434
same,glycan array binding signal (z-score),Gal6S(b1-3)GlcNAc,-0.247
same,glycan array binding signal (z-score),Gal6S(b1-4)Glc6S,-0.752
same,glycan array binding signal (z-score),Gal6S(b1-4)GlcNAc6S,0.571
same,glycan array binding signal (z-score),Gal6S(b1-4)GlcNAc,0.029
same,glycan array binding signal (z-score),Gal6S(b1-4)Glc,-0.9
same,glycan array binding signal (z-score),[3],-0.725
same,glycan array binding signal (z-score),[4],-0.987
same,glycan array binding signal (z-score),GalNAc(a1-3)GalNAc,-0.127
same,glycan array binding signal (z-score),GalNAc(a1-3)Gal,-1.26
same,glycan array binding signal (z-score),[5],0.429
same,glycan array binding signal (z-score),[6],-0.316
same,glycan array binding signal (z-score),[7],1.39
same,glycan array binding signal (z-score),GalNAc(b1-3)GalNAc,-0.525
same,glycan array binding signal (z-score),GalNAc(b1-3)Gal,1.73
same,glycan array binding signal (z-score),GalNAc(b1-4)Gal(b1-4)Glc,0.463
same,glycan array binding signal (z-score),[8],-0.166
same,glycan array binding signal (z-score),GalNAc(b1-4)GlcNAc6S,0.065
same,glycan array binding signal (z-score),GalNAc(b1-4)GlcNAc,0.869
same,glycan array binding signal (z-score),GalNAc(b1-6)GalNAc,0.418
same,glycan array binding signal (z-score),GalNAc3S(b1-4)GlcNAc3S,0.061
same,glycan array binding signal (z-score),GalNAc3S(b1-4)GlcNAc,2.01
same,glycan array binding signal (z-score),GalNAc4S6S(b1-4)GlcNAc,0.454
same,glycan array binding signal (z-score),GalNAc6S(b1-4)GlcNAc,-0.405
same,glycan array binding signal (z-score),[9],-1.74
same,glycan array binding signal (z-score),Glc(a1-4)Glc,-0.206
same,glycan array binding signal (z-score),[10],1.7
same,glycan array binding signal (z-score),Glc(a1-6)Glc(a1-6)Glc,-0.936
same,glycan array binding signal (z-score),Glc(b1-4)Glc,-0.707
same,glycan array binding signal (z-score),Glc(b1-6)Glc,1.01
same,glycan array binding signal (z-score),GlcA(b1-3)Gal,-1.24
same,glycan array binding signal (z-score),GlcA(b1-3)GlcNAc,-0.753
same,glycan array binding signal (z-score),GlcA(b1-6)Gal,-1.45
same,glycan array binding signal (z-score),[11],0.237
same,glycan array binding signal (z-score),[12],-0.897
same,glycan array binding signal (z-score),[13],-0.321
same,glycan array binding signal (z-score),[14],-0.23
same,glycan array binding signal (z-score),[15],-0.769
same,glycan array binding signal (z-score),[16],0.214
same,glycan array binding signal (z-score),[17],3.13
same,glycan array binding signal (z-score),[18],1.07
same,glycan array binding signal (z-score),[19],0.459
same,glycan array binding signal (z-score),[20],-0.909

# Part of the list above, reformatted.
substance	measurement	setting	value
Wza (Escherichia coli), P0A930	glycan array binding signal (z-score)	[2]	0.16
same	glycan array binding signal (z-score)	Gal6P(b1-4)GlcNAc	-1.21
same	glycan array binding signal (z-score)	Gal6S(b1-3)GlcNAc	-0.247
same	glycan array binding signal (z-score)	[6]	-0.316
same	glycan array binding signal (z-score)	GalNAc(b1-3)GalNAc	-0.525
same	glycan array binding signal (z-score)	GalNAc(b1-4)Gal(b1-4)Glc	0.463
same	glycan array binding signal (z-score)	GalNAc(b1-4)GlcNAc	0.869
same	glycan array binding signal (z-score)	GalNAc(b1-6)GalNAc	0.418
same	glycan array binding signal (z-score)	GalNAc3S(b1-4)GlcNAc3S	0.061
same	glycan array binding signal (z-score)	Glc(a1-6)Glc(a1-6)Glc	-0.936
same	glycan array binding signal (z-score)	[11]	0.237
same	glycan array binding signal (z-score)	[14]	-0.23
same	glycan array binding signal (z-score)	[19]	0.459
